Data as given in patent publication US7314644B2, “Extraction and purification method of active constituents from stem of Lonicera japonica thunb., its usage for anti-inflammatory and analgesic drug” (SK Chemicals Co., Ltd., priority 2002, dated 2008).
Some entries share one result that the patent states for a list of compounds.

Test system: SD rats
Assay: Toxicity test (lethal dose, symptoms, weight, autopsy)
Format: in vivo
Details: no dead rats observed
Method: The active constituents of honeysuckle stem and sweroside, in the amount of 1.0 g/kg, 1.5 g/kg and 2.0 g/kg, were administered through the tail veins of SD rats (body weight: 120 to 170 g, 5 male and female rats for each administration dose, SLC, Japan), respectively, which had been fasted for 4 hours. […] An autopsy was conducted to identify presence of any abnormalities of organs.
The lethal dose of the active constituents of honeysuckle stem and sweroside was both over 5.0 g/kg for oral administration (no dead rats observed), and over 2.0 g/kg for intravenous injection (no dead rats observed).

SMILES: C=C[C@H]1[C@H](O[C@@H]2O[C@H](CO)[C@@H](O)[C@H](O)[C@H]2O)OC=C2C(=O)OCC[C@H]21 [Sweroside, sweroside]
- lethal dose (intravenous injection): over 2.0 g/kg
- lethal dose (oral administration): over 5.0 g/kg
